Not every detail of the peptide structures is certain; ends, links or a residue may be inferred.
Target: TSLP (Homo sapiens, UniProt Q969D9)
Assay: Human TSLP Surface Plasmon Resonance (SPR) binding assay
Set-up: The resulting construct spCD33-6×HN-TEV-hTSLP(29-159)-Avi; 6xHN tag with TEV site (N, cleaved yes); made in house; host or cells: Expi293F cells
Settings: biotinylated human TSLP immobilized on streptavidin chip; 20° C.; steady-state or kinetic 1:1 fit; read-out: hTSLP SPR Kd

Chains of the proteins cited; added tags and fusions are not shown. Residues count along the entry.
UniProt Q969D9, 29-159: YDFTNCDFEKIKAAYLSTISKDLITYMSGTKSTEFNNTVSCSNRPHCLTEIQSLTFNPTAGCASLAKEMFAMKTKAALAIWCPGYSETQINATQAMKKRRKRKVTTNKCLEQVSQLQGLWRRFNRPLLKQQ

CC(=O)N[C@H]1CSCCC(=O)N2CN3CN(C2)C(=O)CCSC[C@H](NC(=O)[C@H](CC(=O)O)NC(=O)[C@H](CCC(N)=O)NC(=O)[C@H](CC(C)(C)C)NC(=O)[C@H](Cc2cn(C)c4ccccc24)NC(=O)[C@H](C)N(C)C1=O)C(=O)N[C@@H](Cc1cn(C)c2ccccc12)C(=O)N[C@@H](CCc1ccccc1)C(=O)NCC(=O)N[C@@H](Cc1ccc(F)cc1)C(=O)N[C@H](C(N)=O)CSCCC3=O [Example 46, Ac-(SEQ ID NO: 40)]
Kd: 33 nM

Reference: US11866518B2, “Bicyclic peptide ligands specific for TSLP” (BicycleTx Limited, priority 2020, dated 2024)
